Assay results taken from PubChem BioAssay AID1671190 (National Center for Advancing Translational Sciences (NCATS), 2021).
In all, about 580,000 compounds went through this assay and about 6,100 (1.1%) were called active. Inconclusive results, whose numbers are uncertain, are shown with a selection of clear calls. Calls come from the whole dose curve; as a rule, active = well fitted inhibition curve with a large enough effect; inconclusive = small, poorly fitted or top-dose-only effect, or another doubt; inactive = no such curve, though single readings can be large or run the other way. Where the call is inconclusive, the potency comes from a doubtful curve fit.
% is set by controls: 0 for no effect and ±100 for the full control effect; potency is the fitted concentration of half-maximal effect.

By UniProt entry, the sequences of proteins in these tests, tags left out.
UniProt P18054, whole entry, looked up: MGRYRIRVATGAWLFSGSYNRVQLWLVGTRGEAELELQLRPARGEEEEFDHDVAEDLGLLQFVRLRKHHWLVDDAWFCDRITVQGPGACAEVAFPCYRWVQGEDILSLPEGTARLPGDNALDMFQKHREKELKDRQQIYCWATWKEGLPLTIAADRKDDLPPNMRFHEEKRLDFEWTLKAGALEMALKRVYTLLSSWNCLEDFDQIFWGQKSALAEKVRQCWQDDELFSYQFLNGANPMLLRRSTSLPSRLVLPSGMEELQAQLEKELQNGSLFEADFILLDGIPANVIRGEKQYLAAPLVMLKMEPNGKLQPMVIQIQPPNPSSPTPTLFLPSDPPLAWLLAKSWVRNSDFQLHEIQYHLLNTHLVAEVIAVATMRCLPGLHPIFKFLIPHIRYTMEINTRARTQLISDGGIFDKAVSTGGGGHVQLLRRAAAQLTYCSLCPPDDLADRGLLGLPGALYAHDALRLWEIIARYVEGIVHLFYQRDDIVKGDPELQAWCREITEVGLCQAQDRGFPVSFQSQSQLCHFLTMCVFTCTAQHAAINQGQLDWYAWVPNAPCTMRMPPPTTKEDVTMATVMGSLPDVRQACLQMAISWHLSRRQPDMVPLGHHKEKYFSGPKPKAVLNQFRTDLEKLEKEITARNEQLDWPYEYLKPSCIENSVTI

The compounds below were run against Polyunsaturated fatty acid lipoxygenase ALOX12 (Homo sapiens) (UniProt P18054) (assay: Primary qHTS assay for inhibitors of human arachidonate 12S-lipoxygenase (ALOX12): Round 2). Conditions: purified 12hLO, xylenol orange hydroperoxide absorbance; activity change, negative = inhibition: at 108 µM (top of the series) unless noted.
Method in brief: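 Purified human 12hLO at 150 nM in 25 mM Hepes, 0.01% Triton X-100, pH 7.0, preincubated 15 min at room temperature with compound. Reaction started with 40 uM arachidonic acid, 30 min at room temperature. Hydroperoxide measured by Fe-xylenol orange, 573/405 nm absorbance ratio.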
For `CC1CCC(N2CCN(C(=O)c3ccccc3F)CC2)CC1` (stereo not drawn), the Potency was inconclusive: 3.16 µM [inhibitor, full curve]. For `Cc1cccc(NC(=O)c2ccc(S(=O)(=O)N(C)C)cc2)c1`, the Potency was inconclusive: 79.4 µM [inhibitor, single point]. With `CCc1ccc(NC(=O)N(Cc2cn(CC)c3ccccc23)C2CCCCC2)cc1` the “activity change, negative = inhibition” value was inactive: -4.93%. For `CCOC(=O)C1(CCCc2ccccc2)CCN(C(=O)CSC)CC1`, the Potency was inconclusive: 35.5 µM [inhibitor, partial curve, poor fit]. With `Cc1ccc(C(=O)N2CCC3(CC2)Oc2ccc(F)cc2C(=O)C32CC(c3ccccc3)=NO2)s1` (stereo not drawn) the “activity change, negative = inhibition” value was inactive: -40.5%. With `Cc1cc(CN(Cc2cc(C)c(O)c(C)c2)C2CCCCC2)cc(C)c1O` the Potency was inconclusive: 44.7 µM [inhibitor, partial curve, poor fit]. In the case of `Cc1noc(-c2ccc(OC(F)(F)F)cc2)c1C(=O)NCCCc1ccccc1`, the “activity change, negative = inhibition” value is reported as inactive: 55.1%. In the case of `COc1ccc(C(=O)N2CCN(C(=O)c3nnn4c3COC(c3ccc(Cl)cc3)C4)CC2)cc1` (stereo not drawn), the “activity change, negative = inhibition” value is reported as inactive: 33.7%. `COc1ccc(N(CC(=O)NCc2ccccc2)S(=O)(=O)c2c(C)n[nH]c2C)cc1` was tested, and the “activity change, negative = inhibition” value was inactive: -1.06%. `Cc1ccccc1C1=NC(C)(CC(=O)Nc2ccc(F)cc2F)ON1C` (stereo not drawn) was tested, and the Potency was inconclusive: 141 µM [inhibitor, partial curve, poor fit]. In the case of `Cc1onc(-c2cnn(C)c2NCc2ccc(C#N)cc2)c1C(=O)N1CCN(C)CC1`, the Potency is reported as inconclusive: 70.8 µM [inhibitor, partial curve, poor fit]. `CC1CCN(CCCCOc2ccc(C(=O)c3ccccc3)cc2)CC1` was tested, and the “activity change, negative = inhibition” value was inactive: -7.51%. In the case of `O=S1(=O)CC(N2CC=CC2)CN1C1CCCCC1` (stereo not drawn), the “activity change, negative = inhibition” value is reported as inactive: -5.74%. In the case of `COc1cc(C=O)ccc1OCCCOc1ccccc1C(=O)O`, the “activity change, negative = inhibition” value is reported as inactive: 87.6%. In the case of `CNC(=O)[C@@H]1C[C@@H](n2cc(CN(C)C(=O)Nc3ccccc3)nn2)CN1`, the Potency is reported as inconclusive: 7.94 µM [inhibitor, full curve, poor fit]. In the case of `O=C(OCC(=O)c1c[nH]c2ccccc12)c1ccc(CO)cc1`, the Potency is reported as inconclusive: 100 µM [inhibitor, partial curve, poor fit]. `CN1CCN(c2ncc3nc(-c4cn(C)c5ccccc45)c(=O)n(Cc4cccs4)c3n2)CC1` was tested, and the Potency was inconclusive: 39.8 µM [inhibitor, partial curve, poor fit]. With `CC1=C(C#N)C(c2ccccc2)C2=C(CC(C)(C)CC2=O)N1` (stereo not drawn) the “activity change, negative = inhibition” value was inactive: 5.37%. For `CC(=O)Nc1cccc(C(=O)OCC(=O)NCc2cccs2)c1`, the “activity change, negative = inhibition” value was inactive: 29.6%. For `CCCNC(=O)N1CCN2C(=O)c3cc(-c4cccc(C(F)(F)F)c4)ccc3NC(=O)[C@@H]2C1`, the Potency was inconclusive: 28.2 µM [inhibitor, full curve, poor fit]. For `COCCNc1oc(-c2cccc(Cl)c2)nc1C#N`, the Potency was inconclusive: 35.5 µM [inhibitor, partial curve, poor fit]. In the case of `O=C(CC1SC(=Nc2ccccc2F)N(CCN2CCOCC2)C1=O)Nc1ccc(F)cc1F` (stereo not drawn), the Potency is reported as inconclusive: 39.8 µM [inhibitor, partial curve, poor fit]. With `COc1ccc2[nH]c3nc(SCc4nnc(-c5ccccc5)o4)nnc3c2c1` the “activity change, negative = inhibition” value was inactive: -6.39%. For `COc1ccc(OC)c(NC(=O)CSc2nncc3ccc(OC)c(OC)c23)c1`, the Potency was inconclusive: 44.7 µM [inhibitor, partial curve, poor fit]. For `COc1ccc(CN2CCNC(=O)C2CC(=O)NC2CCCCCC2)c(F)c1` (stereo not drawn), the Potency was inconclusive: 39.8 µM [inhibitor, partial curve, poor fit]. With `CC1CC(C)(C)CC2(C1)NC(=O)N(CC(=O)OCC(=O)Nc1cc(S(=O)(=O)N3CCCCC3)ccc1Cl)C2=O` (stereo not drawn) the Potency was inconclusive: 100 µM [inhibitor, single point]. With `O=C(Nc1ccnn1C1CCN(CCCC2CCCC2)CC1)c1ccccc1Cl` the “activity change, negative = inhibition” value was inactive: 1.87%. In the case of `O=C(O)C1CCCN1C(=O)OCC1c2ccccc2-c2ccccc21` (stereo not drawn), the Potency is reported as inconclusive: 112 µM [inhibitor, partial curve, poor fit]. `O=C(O)c1ccc(C(=O)Nc2cccc3ccccc23)c(C(=O)O)c1` was tested, and the Potency was inconclusive: 15.8 µM [inhibitor, full curve]. For `Cc1c(C(=O)C(=O)N(C)Cc2ccccc2)c2ccccc2n1C`, the Potency was inconclusive: 112 µM [inhibitor, partial curve, poor fit]. With `Cc1cccc(N2CCN(C(=O)c3ccc4c(c3)NC(=O)C(CSCc3cccc(F)c3)N4)CC2C)c1` (stereo not drawn) the Potency was active: 22.4 µM. In the case of `O=C1N(C2CCN(S(=O)(=O)c3ccccc3)CC2)C(c2ccncc2)C12CCCCC2` (stereo not drawn), the “activity change, negative = inhibition” value is reported as inactive: 3.4%. `O=C(NC[C@H]1Cn2c(-c3ccc(F)cc3)cnc2CO1)C1CCCC1` was tested, and the “activity change, negative = inhibition” value was inactive: 44.1% [at 176 µM]. For `CCN(CC)c1ccc(S(=O)(=O)N2CCOCC2)cc1NC(=O)CSc1ccccc1`, the Potency was inconclusive: 50.1 µM [inhibitor, partial curve, poor fit]. For `CN(CCOc1ccccc1Cl)Cc1ccccc1`, the Potency was inconclusive: 0.251 µM [inhibitor, full curve, poor fit]. In the case of `CCOC(=O)Cc1csc(NC(=O)COc2ccc3c(c2)CCC3)n1`, the Potency is reported as inconclusive: 39.8 µM [inhibitor, partial curve, poor fit]. In the case of `CCCn1c(Cc2ccccc2)n[nH]c1=S`, the “activity change, negative = inhibition” value is reported as inactive: 0%. In the case of `Cc1ccc(NC(=O)Cn2nnc(-c3nc(-c4ccc(Cl)cc4)no3)c2N)cc1C`, the activity change, negative = inhibition is reported as inconclusive: -30.8% [inhibitor]. In the case of `Cc1ccc(S(=O)(=O)N2CC(C(=O)NCc3ccncc3)C3(CCOCC3)C2)c(C)c1` (stereo not drawn), the Potency is reported as inconclusive: 10 µM [inhibitor, full curve]. With `CCOC(=O)C1=CC[C@@H](c2ccccc2)N(S(=O)(=O)c2ccc(C)cc2)[C@H]1C#N` the Potency was inconclusive: 39.8 µM [inhibitor, partial curve, poor fit]. `O=C(c1cccnc1OC1CCN(C(=O)C2CC2)C1)N1CCCCC1` (stereo not drawn) was tested, and the “activity change, negative = inhibition” value was inactive: 17.9%. With `O=S(=O)(/N=C(\Sc1ccc(Cl)cc1)c1ccccc1)c1ccccc1` the Potency was inconclusive: 31.6 µM [inhibitor, partial curve, poor fit]. For `CSc1ccccc1C(=O)N1CC(C)CC(C)C1` (stereo not drawn), the “activity change, negative = inhibition” value was inactive: 35.9%. With `COc1ccc2[nH]c3c(=O)n(CCCC(=O)NC4CCCCC4C)c(=S)[nH]c3c2c1` (stereo not drawn) the Potency was inconclusive: 11.2 µM [inhibitor, full curve]. With `CCNC(=O)/C(C#N)=C/c1c(N2CC(C)OC(C)C2)nc2ccccn2c1=O` (stereo not drawn) the Potency was inconclusive: 112 µM [inhibitor, single point]. In the case of `CCCCCC(=O)N/N=C/c1cccnc1`, the “activity change, negative = inhibition” value is reported as inactive: -9.48%. `COc1ccc(C(=O)Nc2ccc(NC(=O)c3ccccc3)cc2)cc1S(=O)(=O)N1CCOCC1` was tested, and the Potency was inconclusive: 100 µM [inhibitor, single point]. With `COc1ccc(-c2nc3cc(NC(=O)COc4ccccc4Cl)ccc3o2)cc1` the “activity change, negative = inhibition” value was inactive: 1.9%. With `O=C1C=C(c2cccc(Cl)c2O)C[C@@H](c2ccc3c(c2)OCO3)C1` the Potency was inconclusive: 44.7 µM [inhibitor, partial curve, poor fit]. For `CC1CC2(CC(C)(C(=O)CSc3n[nH]c(-c4ccccc4Cl)n3)OC2=O)C(=O)O1` (stereo not drawn), the Potency was inconclusive: 35.5 µM [inhibitor, partial curve, poor fit]. In the case of `CCCCCCCn1c(SC(CC)C(=O)OCC)nc2c1c(=O)[nH]c(=O)n2C` (stereo not drawn), the Potency is reported as inconclusive: 35.5 µM [inhibitor, partial curve, poor fit]. With `COCCNC(=O)Cc1ccc(N(Cc2ccc(C)cc2)C(=O)c2ccco2)cc1` the Potency was inconclusive: 20 µM [inhibitor, full curve]. For `CCOc1ccc(CNC(=O)C2CCCN(S(=O)(=O)N(CC)c3ccc(OCC)cc3)C2)cc1` (stereo not drawn), the Potency was inconclusive: 126 µM [inhibitor, partial curve, poor fit]. In the case of `COc1ccc(-n2ncc(C(=O)Nc3ccc4c(c3)OCCO4)c2C2CCN(C(=O)OC(C)(C)C)CC2)cc1`, the “activity change, negative = inhibition” value is reported as inactive: -10.2%. `Cc1cccc(NC(=O)c2cc(Cl)nc3ccccc23)c1` was tested, and the Potency was inconclusive: 112 µM [inhibitor, partial curve, poor fit]. `O=C(NCCN1CCOCC1)c1ccc2ccccc2c1` was tested, and the “activity change, negative = inhibition” value was inactive: 151%. With `CN(CC(=O)Nc1ccccc1Cl)C(=O)COC(=O)c1nc(Cl)c(Cl)c(Cl)c1Cl` the Potency was inconclusive: 50.1 µM [inhibitor, partial curve, poor fit]. `C/C(=N\NC(=O)C1CC1c1ccccc1)c1ccncc1` (stereo not drawn) was tested, and the “activity change, negative = inhibition” value was inactive: 45.6%. With `Cc1cccc(NC(=O)CSc2ccc(-c3ccco3)nn2)c1C` the “activity change, negative = inhibition” value was inactive: -23.1%. `CCOc1cc(N2CCOCC2)c(OCC)cc1NC(=O)CSc1nc(N)cc(=O)[nH]1` was tested, and the Potency was inconclusive: 89.1 µM [inhibitor, partial curve, poor fit]. `COc1cccc(C2=NOC(C(=O)Nc3ccc4c(c3)OCO4)C2)c1` (stereo not drawn) was tested, and the “activity change, negative = inhibition” value was inactive: -0.571%. `Cc1c(-c2ccccc2)sc2ncn(CC(=O)NC3CCCc4ccccc43)c(=O)c12` (stereo not drawn) was tested, and the Potency was inconclusive: 3.16 µM [inhibitor, full curve, poor fit]. In the case of `C[S+](=O)([O-])N1CCC2(CCN(Cc3cccs3)c3ccccc3O2)CC1`, the “activity change, negative = inhibition” value is reported as inactive: -1.53%. `Cc1cccc(C)c1NC(=O)Nc1nc(CN(C)C)cs1` was tested, and the Potency was inconclusive: 44.7 µM [inhibitor, single point]. For `C=CCNC(=O)[C@@H]1Cc2cn(Cc3nccn3C)c3cccc(c23)[C@H](CC(C)C)N1`, the “activity change, negative = inhibition” value was inactive: 104% [at 176 µM]. For `O=C(O)c1cc(-c2ccco2)nc2ccccc12`, the Potency was active: 7.08 µM. `CCOc1cc(C(=O)NC(=S)Nc2cccnc2)cc(OCC)c1OCC` was tested, and the “activity change, negative = inhibition” value was inactive: -17.9%. `Cc1ccc(S(=O)(=O)N2CCC(C(=O)Nc3ccc(Oc4ccccc4)cc3)CC2)cc1` was tested, and the Potency was inconclusive: 70.8 µM [inhibitor, partial curve, poor fit].
